# Test results: publication PMC7568852
# Amino acid sequences for entries named in this document (tags omitted).
# UniProt O00571: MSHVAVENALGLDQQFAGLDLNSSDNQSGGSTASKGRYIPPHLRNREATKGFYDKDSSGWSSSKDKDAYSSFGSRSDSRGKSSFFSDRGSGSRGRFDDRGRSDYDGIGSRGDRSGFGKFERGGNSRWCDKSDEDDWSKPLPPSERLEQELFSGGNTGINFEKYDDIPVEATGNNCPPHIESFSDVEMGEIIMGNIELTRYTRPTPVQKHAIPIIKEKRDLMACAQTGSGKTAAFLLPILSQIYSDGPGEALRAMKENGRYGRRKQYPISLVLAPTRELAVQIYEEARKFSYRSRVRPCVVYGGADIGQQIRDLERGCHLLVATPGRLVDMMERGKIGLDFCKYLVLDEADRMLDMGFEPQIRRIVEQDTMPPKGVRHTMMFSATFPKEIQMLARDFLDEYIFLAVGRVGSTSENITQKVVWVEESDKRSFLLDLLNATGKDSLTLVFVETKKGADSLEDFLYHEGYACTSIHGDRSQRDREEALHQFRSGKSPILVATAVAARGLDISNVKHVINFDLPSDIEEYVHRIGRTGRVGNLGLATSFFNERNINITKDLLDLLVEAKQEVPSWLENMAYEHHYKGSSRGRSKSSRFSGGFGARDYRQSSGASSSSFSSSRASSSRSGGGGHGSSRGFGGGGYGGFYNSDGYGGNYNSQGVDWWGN
# UniProt P25490: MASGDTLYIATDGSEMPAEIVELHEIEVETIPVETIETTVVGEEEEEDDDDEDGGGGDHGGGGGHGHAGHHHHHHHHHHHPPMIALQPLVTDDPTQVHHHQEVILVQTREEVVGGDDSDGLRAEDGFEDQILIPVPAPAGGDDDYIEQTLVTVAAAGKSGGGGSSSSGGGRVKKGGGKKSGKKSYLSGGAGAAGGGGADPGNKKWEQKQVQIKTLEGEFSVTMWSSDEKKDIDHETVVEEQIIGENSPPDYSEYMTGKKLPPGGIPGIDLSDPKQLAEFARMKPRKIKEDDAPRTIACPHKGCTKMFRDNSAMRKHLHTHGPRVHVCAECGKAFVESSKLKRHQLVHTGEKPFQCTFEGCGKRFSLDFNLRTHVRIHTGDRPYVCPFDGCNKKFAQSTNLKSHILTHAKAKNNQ
# UniProt P03372: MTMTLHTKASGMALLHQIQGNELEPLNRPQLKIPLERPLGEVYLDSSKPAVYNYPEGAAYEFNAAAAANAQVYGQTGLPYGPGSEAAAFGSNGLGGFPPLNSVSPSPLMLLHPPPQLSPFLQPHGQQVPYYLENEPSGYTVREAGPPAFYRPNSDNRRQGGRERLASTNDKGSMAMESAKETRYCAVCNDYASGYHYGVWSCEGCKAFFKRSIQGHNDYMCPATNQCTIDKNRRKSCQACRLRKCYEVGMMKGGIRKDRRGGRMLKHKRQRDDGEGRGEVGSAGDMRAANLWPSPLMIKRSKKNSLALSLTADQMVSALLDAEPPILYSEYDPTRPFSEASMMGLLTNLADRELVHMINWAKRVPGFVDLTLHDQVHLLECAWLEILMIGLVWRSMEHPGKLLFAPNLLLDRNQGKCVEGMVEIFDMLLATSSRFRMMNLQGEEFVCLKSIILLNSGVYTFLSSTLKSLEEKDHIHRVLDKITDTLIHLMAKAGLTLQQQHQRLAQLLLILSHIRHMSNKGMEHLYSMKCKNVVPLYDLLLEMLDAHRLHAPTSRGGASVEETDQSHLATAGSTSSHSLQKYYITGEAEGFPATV
# No constants are given. Whether binding was seen depends on the method and setting. Binding seen in cells or lysates may run through a third protein. Some results given as binding are weak or reduced against the parent protein; the word gives no strength.
# Legend:
# [1] = biological target: DEAD‐box helicase 3 (human (endogenous in DLD-1)) (UniProt O00571); assay: co-IP; DDX3 antibody immobilised on AminoLink Plus Coupling Resin, incubated with DLD-1 cell lysates overnight at 4°C, western blot; also in cells overexpressing TCONS_00012883 and controls
# [2] = biological target: Yin Yang 1 (human (endogenous in DLD-1)) (UniProt P25490); assay: co-IP; YY1 immunoprecipitation: whole lysates incubated with the beads-antibody complex, western blot; DLD-1 cells overexpressing TCONS_00012883 and controls
binding [1],binding [2],Substance
no binding,–,estrogen receptor 1 (from UniProt P03372 1-595)
binds,–,Yin Yang 1 (from UniProt P25490 1-414)
–,binds,DEAD‐box helicase 3 (from UniProt O00571 1-662)
